Results are given in words; binding and its absence hold for the method and conditions named. In cells and extracts the contact can be indirect. Some binding calls cover weakened binding; strength is not graded here. Tags and fused reporters may be left off the sequences shown.

Drawing on article PMC5313150, this text covers binding for two molecules.

The test addresses T1, GFP-Dark (Drosophila) (UniProt Q7KLI1).
T1 sequence: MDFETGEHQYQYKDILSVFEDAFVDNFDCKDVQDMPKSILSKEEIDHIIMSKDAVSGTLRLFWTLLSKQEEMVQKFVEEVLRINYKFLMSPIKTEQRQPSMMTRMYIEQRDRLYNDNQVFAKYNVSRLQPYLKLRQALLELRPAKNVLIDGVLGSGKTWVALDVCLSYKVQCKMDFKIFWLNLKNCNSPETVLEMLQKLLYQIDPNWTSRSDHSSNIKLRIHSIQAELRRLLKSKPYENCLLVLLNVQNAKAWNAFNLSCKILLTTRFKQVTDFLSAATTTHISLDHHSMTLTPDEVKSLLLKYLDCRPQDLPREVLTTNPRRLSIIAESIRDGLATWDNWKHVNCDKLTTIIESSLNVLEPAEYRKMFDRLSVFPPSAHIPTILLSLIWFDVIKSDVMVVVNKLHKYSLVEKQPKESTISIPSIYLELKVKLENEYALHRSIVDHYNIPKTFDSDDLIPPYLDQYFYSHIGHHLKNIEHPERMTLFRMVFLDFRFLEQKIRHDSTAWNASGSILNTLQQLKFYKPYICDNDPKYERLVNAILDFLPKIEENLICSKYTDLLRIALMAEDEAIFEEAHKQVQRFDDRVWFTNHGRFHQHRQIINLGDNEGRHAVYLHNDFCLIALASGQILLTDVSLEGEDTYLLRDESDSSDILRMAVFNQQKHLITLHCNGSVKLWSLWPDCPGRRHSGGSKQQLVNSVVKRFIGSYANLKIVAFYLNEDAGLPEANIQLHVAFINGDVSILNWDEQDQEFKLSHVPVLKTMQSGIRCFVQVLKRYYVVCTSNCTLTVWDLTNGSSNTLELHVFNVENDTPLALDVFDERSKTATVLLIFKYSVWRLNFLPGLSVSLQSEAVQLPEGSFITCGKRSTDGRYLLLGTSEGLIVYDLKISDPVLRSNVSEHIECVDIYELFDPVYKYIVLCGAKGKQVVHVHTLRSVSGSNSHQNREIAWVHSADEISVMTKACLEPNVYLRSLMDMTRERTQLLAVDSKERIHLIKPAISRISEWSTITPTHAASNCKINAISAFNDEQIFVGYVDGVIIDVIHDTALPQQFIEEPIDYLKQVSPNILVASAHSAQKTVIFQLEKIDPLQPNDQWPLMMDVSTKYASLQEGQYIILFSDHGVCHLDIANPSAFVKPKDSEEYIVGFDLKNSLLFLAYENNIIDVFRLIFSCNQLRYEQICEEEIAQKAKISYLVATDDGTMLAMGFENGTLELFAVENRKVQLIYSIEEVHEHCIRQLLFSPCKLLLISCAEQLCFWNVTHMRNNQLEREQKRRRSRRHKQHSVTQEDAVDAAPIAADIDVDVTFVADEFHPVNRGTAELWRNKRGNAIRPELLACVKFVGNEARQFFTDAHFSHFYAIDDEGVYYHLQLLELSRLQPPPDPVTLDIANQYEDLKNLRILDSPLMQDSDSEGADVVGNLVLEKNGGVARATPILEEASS
In words: co-IP; GFP-Dark precipitated with GFP-Trap magnetic beads from 3rd instar larval extracts (da>GFP-Dark+Flag-Dronc, Gal80^ts, 24 h at 29°C); NP40 buffer (20 mM TrisHCl pH 8.0, 137 mM NaCl, 1% NP40, 2 mM EDTA), 4°C overnight; blot with anti-Flag.

B1: Flag-Dronc^wt (enzyme, UniProt Q9XYF4 1-450)
chain: MQPPELEIGMPKRHREHIRKNLNILVEWTNYERLAMECVQQGILTVQMLRNTQDLNGKPFNMDEKDVRVEQHRRLLLKITQRGPTAYNLLINALRNINCLDAAVLLESVDESDSRPPFISLNERRTSRKSADIVDTPSPEASEGPCVSKLRNEPLGALTPYVGVVDGPEVKKSKKIHGGDSAILGTYKMQSRFNRGVLLMVNIMDYPDQNRRRIGAEKDSKSLIHLFQELNFTIFPYGNVNQDQFFKLLTMVTSSSYVQNTECFVMVLMTHGNSVEGKEKVEFCDGSVVDMQKIKDHFQTAKCPYLVNKPKVLMFPFCRGDEYDLGHPKNQGNLMEPVYTAQEEKWPDTQTEGIPSPSTNVPSLADTLVCYANTPGYVTHRDLDTGSWYIQKFCQVMADHAHDTDLEDILKKTSEAVGNKRTKKGSMQTGAYDNLGFNKKLYFNPGFFNE
Turning to B1, the binding result is reported as “binds”.

B2: Flag-Dronc^K78R (enzyme, UniProt Q9XYF4 1-450)
chain: MQPPELEIGMPKRHREHIRKNLNILVEWTNYERLAMECVQQGILTVQMLRNTQDLNGKPFNMDEKDVRVEQHRRLLLRITQRGPTAYNLLINALRNINCLDAAVLLESVDESDSRPPFISLNERRTSRKSADIVDTPSPEASEGPCVSKLRNEPLGALTPYVGVVDGPEVKKSKKIHGGDSAILGTYKMQSRFNRGVLLMVNIMDYPDQNRRRIGAEKDSKSLIHLFQELNFTIFPYGNVNQDQFFKLLTMVTSSSYVQNTECFVMVLMTHGNSVEGKEKVEFCDGSVVDMQKIKDHFQTAKCPYLVNKPKVLMFPFCRGDEYDLGHPKNQGNLMEPVYTAQEEKWPDTQTEGIPSPSTNVPSLADTLVCYANTPGYVTHRDLDTGSWYIQKFCQVMADHAHDTDLEDILKKTSEAVGNKRTKKGSMQTGAYDNLGFNKKLYFNPGFFNE
For the molecule B2, the binding entry is on record as “binds”.
